The text below walks through data of publication PMC10853565.

In assay [1] the target is YfiD fused to fragment T18 (Edwardsiella piscicida). Nature of the assay: two-hybrid; bacterial adenylate cyclase two-hybrid (BACTH), same co-transformants grown in LB with IPTG overnight; β-galactosidase activity by ONPG-based colorimetric analysis at 30 °C.
Assay [2] has the same target. Nature of the assay: two-hybrid; bacterial adenylate cyclase two-hybrid (BACTH): YfiD on T18 (pUT18), PARP1 or its pieces on T25 (pKT25), co-transformed into E. coli BTH101; colony colour on LB plates with IPTG and X-Gal, 37 °C, 24-72 h (blue or white).

These are yes or no findings as the source states them, for the method shown.

Regarding “full-length PARP1 fused to fragment T25 (from UniProt Q921K2 1-1014)”, the binding entry in assay [1] and in assay [2] was “no binding” in each case.
